Primary screen of a compound library

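Whole-parasite assay of Trypanosoma brucei over 72 hours; the read-out is not stated. Compounds at 30 µM. Higher reads as stronger inhibition (inferred: compounds with an IC50 in retests scored well above the rest). Values scatter widely below zero; nearly all retest evidence comes from the higher of the two concentrations used. Size under these conditions: about 64,000 compounds, about 940 of them at 50% or above in at least one test.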

Each number is a percent effect as filed. How 0% and 100% were set is not recorded. Most values in the screen are low, and negative values occur. Compounds were drawn at random from those tested, without regard to their results.

compound | effect
Cn1ncc2c1C(COCC1CC1)CN(S(=O)(=O)C1CC1)C2 (configuration not stated) | -11.99%
Cc1nnc(CN2CCN(C)C3(CCC(=O)N(CCO)CC3)C2)s1 (configuration not stated) | -14.41%
CCC(=O)N1CCC(O)(c2ncc(OC)nc2OC)CC1 | -53.67%
CSc1nccc(N2CCC(NCCN3CCOCC3)CC2)n1 | -45.05%
Cc1cc(C(=O)Nc2nnn[nH]2)ccc1I | -30.4%
CCCS(=O)(=O)N1CCC2(CC1)CC(Nc1ncccn1)CO2 (configuration not stated) | -24.59%
CC(C)NC(=O)N1CCC2(CC1)NC(=O)CC2c1ccncc1.O=C(O)C(F)(F)F (configuration not stated) | -19.51%
CCC(=O)N1CCN(C(=O)NCc2c(C)cc(C)cc2C)CC1 | -91.14%
Cc1ccc(OCC(=O)Nc2cnccc2SCCCO)cc1C | -32.61%
O=C(c1cccc2cccnc12)N1CCCN(c2cccnn2)CC1 | -16.13%
CC(C)Nc1cccc(C(=O)NCC(O)c2cccc(F)c2)c1 (configuration not stated) | -27.32%
COc1ccccc1CNc1ccc2nncn2n1 | 2.067%
Cc1nccn1Cc1nnc(C2CCCN(c3ncccc3F)C2)n1C (configuration not stated) | 2.375%
CN1CCCCC1CC(=O)Nc1ccc2ncn(C)c2c1 (configuration not stated) | -20.42%
CC(NC(=O)N(C)Cc1ccc2c(c1)OCO2)c1nncn1C (configuration not stated) | -22.26%
CC(=O)N1CCN(C(=O)CN2CCCC2Cn2nc(C)cc2C)CC1 (configuration not stated) | -40.47%
CN1CCC(N2CCOC[C@H]2c2nc(-c3ccncc3)c[nH]2)CC1 | -3.889%
COCCN1CCC(N(Cc2noc(C3CC3)n2)C(C)=O)C1 (configuration not stated) | -67.09%
CN(c1ccc(C(=O)NCCCN2CCOCC2)c(Cl)c1)S(C)(=O)=O | -5.972%
CN(C)CCCn1ccnc1C1CCN(C(=O)Cc2cccnc2)CC1 | -21.06%
Cc1ccc(N2CCN(C(=O)C3CN(C)C(=O)N3)CC2=O)cc1 (configuration not stated) | -19.87%
CCC[C@@H]1CN(Cc2ccc(C(F)(F)F)nc2)C[C@H]1NS(C)(=O)=O | -13.72%
Cc1nn(CC(O)CN2CCc3ccccc3C2)c(=O)c(C#N)c1C (configuration not stated) | -4.538%
COCCC1CCCCN1Cc1nc(Cc2cccc(F)c2)no1 (configuration not stated) | -58.27%
COC(=O)c1cc(C(=O)N2CCOCC2(C)C)n(-c2ccccc2)n1 | -3.031%
[H][C@@]12OCCN(C(=O)c3nn(C)c4ccccc34)[C@@]1([H])CC[C@H]2OC(C)C | -56.07%
O=C(NCC(=O)N1CCCC1Cc1cccc(F)c1)C1CCCC1 (configuration not stated) | 2.792%
NC(=O)N1CCC2(CCN(Cc3cccc(F)c3)CC2)CC1.O=C(O)C(F)(F)F | -15.21%
CC(C)Nc1nc(N2CCOCC2)nc2c1CN(CC(=O)N(C)C)CC2 | -12.25%
CCCN(CC1CC1)C(=O)Cn1ccccc1=O | -9.374%
Cl.O=C(NCC(F)(F)F)C1=NOC2(CCCNC2)C1 (configuration not stated) | -28.85%
Cc1ncc(-c2ccncc2)c(C2CCN(C(=O)c3ccco3)CC2)n1 | -10.77%
CC(C)(NCCCOc1ccc(C#N)cc1)c1nccs1 | -5.968%
O=C(O)C(F)(F)F.[H][C@@]12OCCC[C@]1([H])N(C)C[C@@H]2NC(=O)c1cscn1 | -88.97%
CN1CCN(Cc2ccc(Cl)cc2)CC1C(=O)O (configuration not stated) | -15.37%
CCOCCc1nc(-c2cnn3c(C)cc(C)nc23)no1 | -15.21%
Cc1cc(CC(=O)N(CC2CN(C)CCO2)c2nccs2)no1 (configuration not stated) | 16.87%
Fc1ccc(CN2CCOC(Cn3cncn3)C2)c2ncccc12 (configuration not stated) | -31.51%
O=C(O)C(F)(F)F.[H][C@@]12CCCO[C@]1([H])[C@H](OCC1CCOCC1)CN2c1ncc(F)cn1 | -93.31%
NC(=O)CN1CCOCC(Cc2ccccc2Cl)C1 (configuration not stated) | 9.481%
CNC(=O)Cn1cc(C#N)c(=O)c2cc(Br)ccc21 | 11.41%
CC1CN(Cc2ccccc2)CCCN1CCNS(C)(=O)=O (configuration not stated) | -174.1%
COC(=O)CCCC(=O)N1CCC(CO)(CCc2ccccc2)CC1 | -1.478%
Cc1nc(NC(=O)CNC(=O)c2c(F)cccc2Cl)n[nH]1 | 33.8%
CCNC(=O)CN1CCC(c2cc(OC)cc(OC)c2)C1 (configuration not stated) | -16%
CS(=O)(=O)CCSCc1cccc2cccnc12 | -55.33%
O=C(CCc1cscn1)N1CCCC(c2ccn[nH]2)C1 (configuration not stated) | 3.839%
O=C(CNC(=O)c1cnc2ccccc2c1O)NCCCn1ccnc1 | -749.2%
CCOc1cc(CNC(=O)c2cnn(CC)c2C(F)(F)F)ccn1 | 1.219%
O=C([C@H]1CCCO1)N1CCC2(CC1)C(=O)N(CC1CC1)c1ccccc12 | -13.43%
CCC(C)(N)c1nc(C(C)C)cc(=O)[nH]1.Cl (configuration not stated) | -20.13%
Clc1cccc2c3c([nH]c12)CCN(Cc1cc2n(n1)CCCNC2)C3 | 22.62%
COc1cccc(Cn2ncnc2CNC(C)=O)c1 | -58.94%
CCCNC(=O)C1(CC2CC(c3ccccc3OC)=NO2)CCOCC1 (configuration not stated) | 2.036%
CC(C)c1nc2cc(NC(=O)Cn3ccccc3=O)ccc2o1 | -15.89%
CN(C)Cc1ccc(C2CCCCN2C(=O)c2cc(=O)[nH]c(=O)[nH]2)cc1 (configuration not stated) | -29.71%
O=C(Nc1cccc(OCc2cccc(F)c2)c1)C1COCCO1 (configuration not stated) | 6.883%
O=C(O)C(F)(F)F.c1cnc(N2CC[C@@H](OCC3CC3)[C@@H]2Cc2cccnc2)nc1 | -6.68%
CC(CC(=O)c1ccccc1)NC(=O)c1ccon1 (configuration not stated) | -85.66%
CC(Nc1ccc(N2C(=O)CCCC2=O)cc1)c1ccc(C#N)cc1 (configuration not stated) | 8.206%
CC(=O)NC(C)C(=O)Nc1ccc(OCc2cccc(F)c2)cc1C (configuration not stated) | -4.36%
CCC(CC)C(=O)NCCC(=O)N1CCN(c2ccccn2)CC1 | 4.489%
Cc1ccc(N2CCN(C(=O)C(O)c3cccc(Cl)c3)CC2=O)cc1 (configuration not stated) | 18.83%
CCc1noc(CNc2cc(F)ccc2OCC2CCCO2)n1 (configuration not stated) | -11.39%
[H][C@@]12OCCN(C(=O)c3ccc(OC)c(F)c3)[C@@]1([H])CC[C@@H]2OCC1CC1 | -35.34%
CC[C@H]1CN(C(=O)c2ccc(-n3cnnc3)nc2)CC[C@@]1(C)O | -26.84%
CC(C)CCNC(=O)c1sccc1N(C)S(=O)(=O)c1ccccc1 | -11.54%
CC(C)N1CCC(C(=O)NC[C@H]2CCc3ccccc3O2)CC1 | -12.8%
c1ccc(-c2nn3c(CN4CCOCC4)nnc3s2)nc1 | -11.8%
Cc1ccccc1CNC(=O)CN1CCN(Cc2nccn2C)CC1 | 6.042%
CN(Cc1noc2c1CCCC2)C(=O)Nc1cccc(S(N)(=O)=O)c1 | -71.92%
CCCn1cc(C(=O)NCC(=O)NC2CC2)c(C)n1 | -16.77%
COCCC(=O)NCC1COc2cc(OC)ccc2C1 (configuration not stated) | -3.443%
Cc1nsc(N2CCCN(CC(=O)N(C)C3CC3)CC2)n1 | -87.92%
O=C(NCCCn1cccn1)C1(c2ccc(F)cc2)CC1 | -62.72%
CCN(CC)CCNC(=O)c1nn(CC)cc1Cl | -6.045%

The last 7 entries again:

{"compound": "Cc1ccccc1CNC(=O)CN1CCN(Cc2nccn2C)CC1", "effect": 6.042}
{"compound": "CN(Cc1noc2c1CCCC2)C(=O)Nc1cccc(S(N)(=O)=O)c1", "effect": -71.92}
{"compound": "CCCn1cc(C(=O)NCC(=O)NC2CC2)c(C)n1", "effect": -16.77}
{"compound": "COCCC(=O)NCC1COc2cc(OC)ccc2C1", "stereo": "configuration not stated", "effect": -3.443}
{"compound": "Cc1nsc(N2CCCN(CC(=O)N(C)C3CC3)CC2)n1", "effect": -87.92}
{"compound": "O=C(NCCCn1cccn1)C1(c2ccc(F)cc2)CC1", "effect": -62.72}
{"compound": "CCN(CC)CCNC(=O)c1nn(CC)cc1Cl", "effect": -6.045}

The values are deposited in ChEMBL (CHEMBL3988442, “University of Dundee, Small-Polar-MMV Screening Library” (2021)).